## Library screening results

Measurements from “University of Dundee, Small-Polar-MMV Screening Library” (2021), ChEMBL document CHEMBL3988442.

Results are given as percent effect. The controls that fix the scale are not given in the record; negative values are as filed. Compounds were drawn at random from those tested, without regard to their results. A dash means the value is not listed here; it may have been measured.

A: 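Whole-cell assay for inhibitors of Mycobacterium tuberculosis growth, labelled Cornell in the record; the read-out is not stated. The concentration is filed as 10 mM, unlikely as a test dose, so the dose is not known. Higher means stronger inhibition (inferred from two other growth screens of the library). Size under these conditions: about 53,000 compounds, about 900 of them at 50% or above in at least one test.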
B: 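Assay on Mycobacterium tuberculosis, filed only as a heat shock assay from Cornell; the read-out is not stated. The concentration is filed as 10 mM, unlikely as a test dose, so the dose is not known. The record gives no direction; compounds that gave an IC50 in retests scored well above the rest, so higher reads as stronger inhibition. Size under these conditions: about 69,000 compounds, about 930 of them at 50% or above in at least one test.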

structure	A	B
Cc1ccc(Cn2c(=O)[nH]c3csnc3c2=O)cc1	3.957	-1.485
CCOCCCNc1ncc(-c2cccc(F)c2)c(-c2nccn2C)n1	17.81	8.299
COCCOCC(=O)NC(C#N)c1c(F)cccc1Cl (centres undefined)	-18.91	-3.775
COCCCN1CCCN(C(C)c2nc(C3CC3)no2)CC1 (centres undefined)	15.64	-3.963
O=S(=O)(NC1CCC2(CC1)OCCO2)c1cccc(Br)c1	-28.48	1.139
O=c1[nH]c2c(-c3ccccn3)nsc2c(=O)n1CC1CC1	10.03	3.825
COCCC(=O)NC(C)(C(N)=O)c1cccc(Cl)c1 (centres undefined)	5.832	12.07
Nc1ncc(CN2CCC(O)(c3ccccc3F)CC2)cn1	-6.463	8.603
Cc1ccc(C(=O)N2CCCC(N(C)C(=O)OC(C)(C)C)C2)o1 (centres undefined)	29.43	2.29
CCN(CCNC(=O)Nc1nnc(C)s1)C(=O)OC(C)(C)C	11.94	11.32
O=C(c1ccncc1)N1CC[C@@H](O)[C@@H](O)[C@H](N2CCC(F)(F)CC2)C1	9.123	-0.3697
CC(C)c1ncc2c(n1)CN(Cc1noc(-c3ccccc3)n1)CC2	-	59.47
Cc1ccc(CN2CCOC3(CCCN(C(=O)c4ccco4)C3)C2)s1.O=C(O)C(F)(F)F (centres undefined)	11.53	4.177
CC(C)c1nc(CN(C)C(=O)c2ccc(CN3CCCCC3)cc2)cs1	-2.324	22.61
CCn1nccc1CNC(=O)C1CCCO1 (centres undefined)	2.274	-13.29
NC(=O)C1CCN(C(=O)NCc2ccccc2Cn2cncn2)CC1	-	-5.616
CCn1cnnc1C1CCCN(C(=O)COc2ccc(Cl)cc2)C1 (centres undefined)	35.92	-3.361
CNC(=O)C1CN(c2ccnc(C)n2)CCN1Cc1ccccc1 (centres undefined)	8.712	-2.234
Cc1n[nH]c(C)c1S(=O)(=O)N(C)Cc1nn(C)c(Cl)c1Cl	-	24.03
O=C(CCc1ccc2c(c1)OCO2)N1CCCC(n2cccn2)C1 (centres undefined)	-10.62	8.857
Cc1cnn(C2CCCN(C(=O)COc3ccc(C(N)=O)cc3)C2)c1 (centres undefined)	21.99	9.325
O=C(COCc1ccccc1Cl)N1CCCC(n2ccnc2)C1 (centres undefined)	-	-50.11
Cc1ncc2c(n1)CN(Cc1cccc3c1OCCO3)CC2	-	-7.133
CN1CCN(CC2CC2)C(=O)c2cnc(N3CCCCC3)nc21	-	0.8303
O=C(O)c1ccccc1CN1CCC(c2ccnc3ccnn23)CC1	-18.12	6.864
CCOC(=O)C1(CCOC)CCCN(Cc2nccn2CC)C1 (centres undefined)	19.95	11.98
Cc1csc2c(N3CCNC(C(=O)NCc4cccnc4)C3)ncnc12 (centres undefined)	-23.64	-8.283
CCC1CCN(CCn2cnc3c(C)csc3c2=O)CC1	20.87	-4.792
CCc1nc(NC(=O)NCCc2cscn2)nn1C	-27.26	2.749
Cc1ccc2cccc(Oc3nc(C)c(C(=O)O)s3)c2n1	-22.13	-9.445
Cc1ccccc1C1(C(=O)NCCN2CCCCC2C)CCOCC1 (centres undefined)	-	-5.702
O=C(O)C(F)(F)F.[H][C@@]12CN(C(=O)c3ccc(C)o3)C[C@@]1([H])N(Cc1cccnc1)C(=O)CO2	26.07	32.33
CC(=O)N1CCc2c(nc(N(C)C)nc2NCCCn2ccnc2)C1	5.776	11.68
CCN1CCNC(=O)C12CCN(S(=O)(=O)c1ccccc1)CC2	-	-16.27
CCC(=O)c1ccc(Br)cc1NN1c2cc(Br)ccc2C(=O)C1(C)OC (centres undefined)	-6.223	8.925
Cc1[nH]c2c(C)ccc(C)c2c1CC(=O)NCCCNc1cccnc1	-29.6	8.245
CCC[C@@H]1CN(Cc2cc3c(cc2OC)OCCO3)C[C@H]1C(=O)O	-	19.02
Cn1ccc2c(-c3cc(N4CCCCC4)ncn3)ccnc21	-7.071	6.81
O=c1[nH]c2ccc(S(=O)(=O)N(CCO)Cc3ccncc3)cc2[nH]1	19.01	-6.593
O=c1oc(-c2ccc(F)cc2)nn1CN1CCN(C2CCCC2)CC1	6.77	-20.37
COCCN1CCC(Cc2cncc(-c3ccc(C(=O)O)cc3)n2)C1 (centres undefined)	2.376	12.51
O=C(NCCN1CCCCC1)c1ccn(-c2ccc(F)cc2)n1	-	0.3801
COCCn1c2c(ccc1=O)CC(NCc1cccnc1OC)CC2.O=C(O)C(F)(F)F.O=C(O)C(F)(F)F (centres undefined)	3.935	19.47

The last 6 entries again:

structure,A,B
Cn1ccc2c(-c3cc(N4CCCCC4)ncn3)ccnc21,-7.071,6.81
O=c1[nH]c2ccc(S(=O)(=O)N(CCO)Cc3ccncc3)cc2[nH]1,19.01,-6.593
O=c1oc(-c2ccc(F)cc2)nn1CN1CCN(C2CCCC2)CC1,6.77,-20.37
COCCN1CCC(Cc2cncc(-c3ccc(C(=O)O)cc3)n2)C1 (centres undefined),2.376,12.51
O=C(NCCN1CCCCC1)c1ccn(-c2ccc(F)cc2)n1,-,0.3801
COCCn1c2c(ccc1=O)CC(NCc1cccnc1OC)CC2.O=C(O)C(F)(F)F.O=C(O)C(F)(F)F (centres undefined),3.935,19.47